Experimental data reported in paper PMC6151437 (Molecules : A Journal of Synthetic Chemistry and Natural …, 2017).

experiment: general procedure: Fmoc solid-phase peptide synthesis; Rink amide resin (0.46 meq/g); DCC/6-Cl-HOBt; conditions: whole synthesis, RP-HPLC

(RRWQWR)2K-Ahx and (RRWQWRMKKLG)2K-Ahx are the same in “final HPLC purity” value: 86% for the first, 86% for the second.

First: ^17FKARRWQWRMKKLGA^31
Second: ^20RRWQWR^25
The “final HPLC purity” value of the first is higher: 95% for the first, 92% for the second.

First: ^20RRWQWRMKKLG^30
Second: (FKARRWQWRMKKLGA)2K-Ahx
The “final HPLC purity” value of the first is higher: 95% for the first, 88% for the second.

For ^20RRWQWR^25, the “crude HPLC purity” value was 40%.
